According to article PMC9793604:
No constants are given. Whether binding was seen depends on the method and setting. Some results given as binding are weak or reduced against the parent protein; the word gives no strength. Tags and fused reporters may be left off the sequences shown.

Key:
[1] = molecular target: normal OsphyC (OsphyC-w), yeast two-hybrid fusion (rice) (UniProt Q10CQ8); assay: two-hybrid; pGBKT7 and pGADT7 fusions co-transformed into yeast AH109; growth on SD/-Ade/-His/-Trp/-Leu for 3-4 days at 30 C; 5 mM 3-AT added to the selection medium to detect the strength of the interaction
[2] = molecular target: T1, OsphyB, yeast two-hybrid fusion (rice) (UniProt Q10MG9); assay: as above
T1 sequence: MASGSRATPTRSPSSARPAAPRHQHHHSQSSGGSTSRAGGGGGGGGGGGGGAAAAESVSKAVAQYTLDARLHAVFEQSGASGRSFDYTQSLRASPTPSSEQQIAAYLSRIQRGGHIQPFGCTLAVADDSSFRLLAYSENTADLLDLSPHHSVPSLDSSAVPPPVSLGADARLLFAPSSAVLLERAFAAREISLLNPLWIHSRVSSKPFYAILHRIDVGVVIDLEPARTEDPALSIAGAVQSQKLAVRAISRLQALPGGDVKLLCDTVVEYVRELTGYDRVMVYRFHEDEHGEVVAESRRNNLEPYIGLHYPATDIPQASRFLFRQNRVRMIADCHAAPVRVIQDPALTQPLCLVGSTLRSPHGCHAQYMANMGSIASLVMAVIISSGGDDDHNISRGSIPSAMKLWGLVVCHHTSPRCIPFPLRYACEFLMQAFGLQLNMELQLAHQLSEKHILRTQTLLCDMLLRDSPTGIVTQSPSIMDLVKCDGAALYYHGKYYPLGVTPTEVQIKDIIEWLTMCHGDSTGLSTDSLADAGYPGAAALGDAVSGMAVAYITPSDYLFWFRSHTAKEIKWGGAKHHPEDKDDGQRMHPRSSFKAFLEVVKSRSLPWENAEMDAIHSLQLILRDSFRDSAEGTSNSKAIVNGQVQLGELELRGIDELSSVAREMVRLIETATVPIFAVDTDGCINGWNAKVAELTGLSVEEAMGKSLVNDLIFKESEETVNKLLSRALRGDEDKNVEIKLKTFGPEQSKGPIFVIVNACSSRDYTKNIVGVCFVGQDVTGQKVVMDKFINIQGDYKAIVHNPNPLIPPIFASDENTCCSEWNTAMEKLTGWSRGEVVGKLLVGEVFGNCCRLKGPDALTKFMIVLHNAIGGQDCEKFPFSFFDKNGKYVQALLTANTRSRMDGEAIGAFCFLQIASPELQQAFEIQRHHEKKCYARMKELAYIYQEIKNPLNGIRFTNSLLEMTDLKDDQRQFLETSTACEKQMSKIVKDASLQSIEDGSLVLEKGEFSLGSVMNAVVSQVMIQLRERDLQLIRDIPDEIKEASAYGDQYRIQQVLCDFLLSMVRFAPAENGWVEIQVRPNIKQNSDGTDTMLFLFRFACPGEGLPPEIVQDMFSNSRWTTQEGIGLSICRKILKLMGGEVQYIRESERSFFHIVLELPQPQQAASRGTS

B1: normal OsphyC (OsphyC-w), yeast two-hybrid fusion (protein, UniProt Q10CQ8 1-1137)
chain: MSSSRSNNRATCSRSSSARSKHSARVVAQTPMDAQLHAEFEGSQRHFDYSSSVGAANRSGATTSNVSAYLQNMQRGRFVQPFGCLLAVHPETFALLAYSENAAEMLDLTPHAVPTIDQREALAVGTDVRTLFRSHSFVALQKAATFGDVNLLNPILVHARTSGKPFYAIMHRIDVGLVIDLEPVNPVDLPVTATGAIKSYKLAARAIARLQSLPSGNLSLLCDVLVREVSELTGYDRVMAYKFHEDEHGEVIAECKRSDLEPYLGLHYPATDIPQASRFLFMKNKVRMICDCSATPVKIIQDDSLTQPISICGSTLRAPHGCHAQYMASMGSVASLVMSVTINEDEDDDGDTGSDQQPKGRKLWGLMVCHHTSPRFVPFPLRYACEFLLQVFGIQINKEVELAAQAKERHILRTQTLLCDMLLRDAPVGIFTQSPNVMDLVKCDGAALYYQNQLWVLGSTPSEAEIKNIVAWLQEYHDGSTGLSTDSLVEAGYPGAAALGDVVCGMAAIKISSKDFIFWFRSHTAKEIKWGGAKHEPIDADDNGRKMHPRSSFKAFLEVVKWRSVPWEDVEMDAIHSLQLILRGSLQDEDANKNNNAKSIVTAPSDDMKKIQGLLELRTVTNEMVRLIETATAPILAVDITGSINGWNNKAAELTGLPVMEAIGKPLVDLVIDDSVEVVKQILNSALQGIEEQNLQIKLKTFNHQENNGPVILMVNACCSRDLSEKVVGVCFVAQDMTGQNIIMDKYTRIQGDYVAIVKNPSELIPPIFMINDLGSCLEWNEAMQKITGIKREDAVDKLLIGEVFTHHEYGCRVKDHGTLTKLSILMNTVISGQDPEKLLFGFFNTDGKYIESLMTATKRTDAEGKITGALCFLHVASPELQHALQVQKMSEQAAMNSFKELTYIRQELRNPLNGMQFTRNLLEPSDLTEEQRKLLASNVLCQEQLKKILHDTDLESIEQCYTEMSTVDFNLEEALNTVLMQAMPQSKEKQISIDRDWPAEVSCMHLCGDNLRLQQVLADFLACMLQFTQPAEGPIVLQVIPRMENIGSGMQIAHLEFRLVHPAPGVPEALIQEMFRHSPGASREGLGLYISQKLVKTMSGTVQYLRESESSSFIVLVEFPVAQLSTKRCKASTSKF
- binding [1]: binds weakly
- binding [2]: binds
